Reference: ChEMBL document CHEMBL1126811, “Fluorinated and iodinated dopamine agents: D2 imaging agents for PET and SPECT” (J Med Chem, 1993)

Organism: Rattus norvegicus
Experiment: Inhibition constant on radiolabeled [125I]FIDA1 binding to rat striatal membranes
Parameters: species or system Striatum, Membrane
In short: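 Rat striatal membrane homogenate (40–60 μg protein) incubated with 125I-labeled ligand ± competitors in 0.2 mL assay buffer, 15 min at 37 °C with stirring. Filtered on protamine-pretreated (0.2%) GF/B filters, washed with cold 50 mM Tris-HCl pH 7.4, gamma-counted. Nonspecific binding defined with 10 μM (+)-butaclamol. Scatchard and competition data fitted by iterative nonlinear least squares.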

Ki: > 10 µM
SMILES: CC(C)NCC(O)COc1cccc2ccccc12 (racemic) [PROPRANOLOL]
